For some assays here: Results from cells or extracts need not show a direct contact. A negative result means that nothing was seen under these conditions. Where a protein sequence is shown, tags need not be part of it. For at least one entry, the source does not settle the construct or the ends of the probe.
Key:
[1] = target: T1, endogenous USP in Sf9 nuclear extract (Spodoptera frugiperda) (UniProt K7WYJ0); assay: activity in cells; details: protein in an extract, only the site is given; for activity on this sequence (fold induction): Sf9 luciferase reporter, 75 uM methyl epoxyfarnesoate, endogenous receptor
T1 sequence (looked up, limits assumed): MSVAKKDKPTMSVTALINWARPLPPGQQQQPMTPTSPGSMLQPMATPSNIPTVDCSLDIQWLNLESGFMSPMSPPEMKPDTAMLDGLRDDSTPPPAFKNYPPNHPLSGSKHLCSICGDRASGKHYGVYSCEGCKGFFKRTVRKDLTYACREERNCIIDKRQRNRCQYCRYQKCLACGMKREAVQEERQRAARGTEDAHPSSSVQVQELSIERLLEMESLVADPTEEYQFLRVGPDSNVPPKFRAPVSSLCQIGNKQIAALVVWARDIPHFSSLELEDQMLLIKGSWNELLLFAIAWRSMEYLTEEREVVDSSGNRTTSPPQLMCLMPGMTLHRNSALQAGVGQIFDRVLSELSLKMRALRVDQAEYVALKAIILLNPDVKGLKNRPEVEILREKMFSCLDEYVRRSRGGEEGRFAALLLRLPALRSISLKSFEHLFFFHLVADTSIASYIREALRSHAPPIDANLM

[2] = target: T1, endogenous USP in Sf9 nuclear extract (Spodoptera frugiperda); assay: competition with a labelled probe; details: protein in an extract

CAAGACATAGAGGCCAAAGAAGACATG (double strand) [mutDR12]
activity on this sequence ([1]; 1DR12mutCore response no greater than core promoter background, variant of DR12): not active
binding result ([2]; 100x unlabelled mutDR12 does not compete, variant of DR12): no binding

CAAGGTCAAAGGTCAG (double strand) [4DR1]
activity on this sequence (fold induction) [1]: 2.5

CAAGGTCAAGAAAGGTCAG (double strand) [4DR4]
activity on this sequence (fold induction) [1]: 3.5

GGTACCGAGCTCTTACGCGTGCTAGCCCGGGCTCGA (double strand) [pGL3 polylinker (nonself)]
binding result ([2]; 100x nonself does not compete): no binding

From patent US20050054569A1, “Mutants and assay system to identify USP/RXR ligands” (published 2005)
